We go through 2 substances from article PMC8058732.

Sequences of proteins named here, by UniProt entry; tags and fusion partners are left off.
UniProt O00487: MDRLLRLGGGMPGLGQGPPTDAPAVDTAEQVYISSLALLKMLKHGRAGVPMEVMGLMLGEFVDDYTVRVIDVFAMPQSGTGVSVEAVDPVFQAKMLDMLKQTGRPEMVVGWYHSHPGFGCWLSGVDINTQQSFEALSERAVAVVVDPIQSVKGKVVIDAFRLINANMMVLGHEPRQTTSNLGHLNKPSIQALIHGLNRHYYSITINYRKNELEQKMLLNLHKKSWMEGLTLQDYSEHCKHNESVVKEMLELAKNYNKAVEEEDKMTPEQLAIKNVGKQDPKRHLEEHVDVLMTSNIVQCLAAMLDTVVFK
UniProt O95863: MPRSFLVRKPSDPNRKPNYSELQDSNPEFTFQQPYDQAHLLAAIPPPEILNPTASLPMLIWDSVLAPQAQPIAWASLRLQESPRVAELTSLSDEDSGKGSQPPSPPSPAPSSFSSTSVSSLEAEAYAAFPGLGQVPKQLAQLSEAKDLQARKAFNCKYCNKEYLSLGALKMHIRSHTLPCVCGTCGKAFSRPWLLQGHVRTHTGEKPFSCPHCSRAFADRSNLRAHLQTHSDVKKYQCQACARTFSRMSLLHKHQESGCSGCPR

Results are given in words; binding and its absence hold for the method and conditions named. In cells and extracts the contact can be indirect. Some entries that bind do so weakly or less than the wild type.

The target in assay [1] is 26S proteasome non-ATPase regulatory subunit 14 (PSMD14) (human (endogenous in KYSE 30 and KYSE 150)) (UniProt O00487). Description: co-IP; whole cell lysates of KYSE 30 (and KYSE 150) cells treated with THL or DMSO for 24 h; incubated with anti-SNAIL or anti-PSMD14 antibody or normal IgG at 4 °C overnight, protein A/G agarose beads 2 h; immunoblotting. For orientation: In western blotting, separated proteins are transferred to a membrane and probed.

For assay [2], the target named is SNAIL (human (endogenous in KYSE 30 and KYSE 150)) (UniProt O95863). The assay is described as above.

Consider SNAIL (from UniProt O95863 1-264), for which the binding entry in assay [1] is reported as “binds”.

For the substance “26S proteasome non-ATPase regulatory subunit 14 (PSMD14) (from UniProt O00487 1-310) (enzyme)”, the binding result in assay [2] is on record as “binds”.
